## Results from one PubChem assay

From PubChem BioAssay record AID1159506 (NCATS, 2015).

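Luminescence from an EWS-FLI1 target-promoter (NR0B1) reporter, set against a CMV-promoter reporter, two days after silencing single genes in TC32 Ewing sarcoma cells. Each siRNA was applied at 20 nM. A z-score of the log NR0B1-over-CMV signal, less the median of siRNAs with the same seed; more negative means a stronger specific loss of the NR0B1 reporter.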

The strongest results of the screen are mostly left out here. Sequences are the guide (antisense) strand, without overhang.

strand,target gene,seed-corrected z-score
UUCAUAACAAGGAUCGCUC,GRID2,-1.02
UCUCGAAUAAGUCGGACAU,MAP1LC3B,0.182
UCGAUGUACAUUACUGAGC,PCYOX1,0.7276
UUUCCGUUGAGGAAGGUCC,LOC646227,-0.0995
UACGUUCUUCACAUUAUUG,DOK5,-0.3325
UUUAGUUAGAUCUUUCUUG,KIF24,-0.0009156
UAAGCUUCUUCGUGCAUCU,ZNF99,-0.2124
ACAGGUACCAGGAAUAUCG,TBC1D28,0.2775
UAUUGAGUUGAUUGGGUCC,SS18,-0.05357
UUAGAAACCUCGUAAGGUC,TSNAX,0.04961
UGAAGUUACACUUCAAAGU,IGSF21,0.5516
UAUACGGAUAGACACUAGG,ZBTB38,-0.1636
AUACUGAUAACCUCCAUGC,FAM98A,0.6931
AUACUGGUAGGGACACUCA,LOC388572,0.4365
AAUAGUUAGAAAAUACACG,FHL5,-0.03111
UAUAGUUGCCGUAAUGCCG,IGLON5,-1.285
UUAACUUCUAUGCUGUCUC,METAP1D,-0.3362
AAGUCUGCGAUUUUGAUGG,DDR1,-1.494
UUGGUUAUGACCUGAUAGC,MYBPC2,-0.0675
ACAUUGGCCGCGUUCAUGU,MIF,0.05831
UAAGGAUAAAGAGUUAAAC,C11orf44,0.7099
UCAGCUUGAAUAUUAAGCC,CCL1,-0.3488
UGCUCUAUUCGACAAGAUC,HOXD10,-0.1332
UCUGAUAUUCUCAAUCUUG,UCHL5,-0.282
UUCAGUUCGGUCGAGUCCA,PRICKLE4,0.02068
UAUAGUUCGUUUUAGUUUC,LOC729680,-0.2667
UAUAAGGUGGUAUAUAACC,QRSL1,-0.01647
UAUAGGCUCUCUGAAUUUC,CYB5RL,0.1707
AGUUAAACCAUCAAUCCCG,COL9A2,-0.1819
UUCUCAAUUAGUUUGUCUC,PPP1R8,-0.1491
UUAUCCUCGAUAUUCUGCC,PLEKHB2,0.004254
UCUUGUUGUACAUUCGCAC,HKDC1,0.1526
UCCCUUCUGAGGCUCUUGC,MIR9-3HG,0.4583
UCUGGUGCUGAGAUGAUGC,SLC5A12,-0.5455
UUAUUGCGAACAACAAUAG,TTN,0.08021
UGACAAUCCAUCUCUCUGG,ARNT2,-0.6147
AUACGUGUCAGCAUAGUGU,PRKRIRP1,0.6054
UAUUAGACAACAUCUUAGG,OR6N2,0.009111
UAAGUUUUGGAAGCUCUUG,ZNF75D,-0.235
UAUUUUUACUAAGGGAUGG,LINC01547,0.5205
UUUUCCAAGCGGGUGAUCC,NT5DC2,-1.846
AGGUCUUUAACUUAUGAUC,AK9,-0.7248
UAAGGACCAAACAGGUAGG,LAPTM4B,1.389
UGGAGGACCAUGAACACUG,CIDEC,0.738
UAAAUUCCCUCCACAAUGU,GUCA1B,0.004812
UUCUCCUUCACUGCAAUGU,RPS5,2.609
UGCAUGACCUCUAAAAUGC,STKLD1,-0.1385
UGAGAUCCGACUGCGUUCC,RHOU,-0.2691
AGAUCAAUGAUGGUAGCCC,HDAC11,-1.107
UUGUCUAGUAAUAUACUCC,KIAA1586,-0.9722
UGAGACGGCAUCUCUCUGG,TMEM235,-0.0595
AGCGAGACUAUAAUUCUCC,MTNR1A,0.2732
UUCCGCAUCAAUGCACACC,DNMT1,-0.5986
AACACGAUCUGCUCCAUGC,ITPR3,0.295

5 of the entries, repeated:

{"strand": "UUCAUAACAAGGAUCGCUC", "target gene": "GRID2", "seed-corrected z-score": "-1.02"}
{"strand": "UCUGGUGCUGAGAUGAUGC", "target gene": "SLC5A12", "seed-corrected z-score": "-0.5455"}
{"strand": "ACAUUGGCCGCGUUCAUGU", "target gene": "MIF", "seed-corrected z-score": "0.05831"}
{"strand": "UAUACGGAUAGACACUAGG", "target gene": "ZBTB38", "seed-corrected z-score": "-0.1636"}
{"strand": "UAAGUUUUGGAAGCUCUUG", "target gene": "ZNF75D", "seed-corrected z-score": "-0.235"}